Values quoted from earlier work, collected in US11905537B2, “Bifunction chemical epigenetic modifiers and methods of use” (The University of North Carolina at Chapel Hill, priority 2017, dated 2024).
Some entries share one result that the patent states for a list of compounds.

Conditions: Peart et al. 2005; cited from earlier work

Structure (SMILES): O=C(CCCCCCC(=O)Nc1ccccc1)NO [suberanilohydroxamic acid]
- genes with changed expression: up to 22%
